Reference: article PMC9463175
These are yes or no findings as the source states them, for the method shown. Binding seen in cells or lysates may run through a third protein. A yes stands for co-enrichment or nearness to the bait. Other partners may have been found.

Target: T1, ZNF276 (bait of the immunoprecipitation plus mass spectrometry) (UniProt Q8N554)
T1 sequence: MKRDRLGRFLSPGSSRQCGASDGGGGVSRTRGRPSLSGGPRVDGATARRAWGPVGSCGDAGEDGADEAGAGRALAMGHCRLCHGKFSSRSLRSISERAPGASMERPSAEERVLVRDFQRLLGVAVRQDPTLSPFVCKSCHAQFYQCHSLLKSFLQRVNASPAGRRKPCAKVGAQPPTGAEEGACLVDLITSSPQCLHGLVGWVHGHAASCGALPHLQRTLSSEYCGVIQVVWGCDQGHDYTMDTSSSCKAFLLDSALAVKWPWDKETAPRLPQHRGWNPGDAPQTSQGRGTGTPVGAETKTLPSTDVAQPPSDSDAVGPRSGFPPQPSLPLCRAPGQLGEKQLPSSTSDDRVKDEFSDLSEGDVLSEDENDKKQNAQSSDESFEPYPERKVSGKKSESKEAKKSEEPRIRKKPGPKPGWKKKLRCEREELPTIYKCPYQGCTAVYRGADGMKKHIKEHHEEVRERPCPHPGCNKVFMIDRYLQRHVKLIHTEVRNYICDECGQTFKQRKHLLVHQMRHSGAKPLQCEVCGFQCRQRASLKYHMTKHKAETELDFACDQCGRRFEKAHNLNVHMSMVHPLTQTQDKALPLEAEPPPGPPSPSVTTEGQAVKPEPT
Experiment: affinity purification with mass spectrometry; immunoprecipitation (IP) of ZNF276 plus mass spectrometry; non-specific proteins of the control group removed; cells and antibody not stated

binding: binds
B1: MAGEB2 (found by mass spectrometry in the ZNF276 immunoprecipitate) (protein, UniProt O15479 1-319)
chain: MPRGQKSKLRAREKRRKARDETRGLNVPQVTEAEEEEAPCCSSSVSGGAASSSPAAGIPQEPQRAPTTAAAAAAGVSSTKSKKGAKSHQGEKNASSSQASTSTKSPSEDPLTRKSGSLVQFLLYKYKIKKSVTKGEMLKIVGKRFREHFPEILKKASEGLSVVFGLELNKVNPNGHTYTFIDKVDLTDEESLLSSWDFPRRKLLMPLLGVIFLNGNSATEEEIWEFLNMLGVYDGEEHSVFGEPWKLITKDLVQEKYLEYKQVPSSDPPRFQFLWGPRAYAETSKMKVLEFLAKVNGTTPCAFPTHYEEALKDEEKAGV
